The values that follow come from publication PMC11289419.

Sequences of proteins named here, by UniProt entry; tags and fusion partners are left off. A change or cut given only in a name is not applied to a line headed by its entry.
UniProt P04891: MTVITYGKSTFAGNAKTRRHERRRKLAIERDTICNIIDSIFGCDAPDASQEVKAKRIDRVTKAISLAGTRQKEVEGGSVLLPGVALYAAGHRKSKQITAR
UniProt P22629: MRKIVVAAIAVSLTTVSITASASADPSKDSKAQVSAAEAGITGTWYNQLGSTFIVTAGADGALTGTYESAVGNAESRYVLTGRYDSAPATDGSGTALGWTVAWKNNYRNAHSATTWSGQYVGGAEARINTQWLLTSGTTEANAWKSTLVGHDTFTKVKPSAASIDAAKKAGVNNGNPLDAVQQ

Negatives hold for the conditions tested. At least one verdict rests on a figure or table, not on a statement of the authors. For part of these data: Construct, isoform or probe ends are uncertain for at least one entry.

The target of series [1] is P22 N peptide (bacteriophage P22) (UniProt P04891). In words: fluorescence microscopy recruitment to RNA condensate. To be noted: Multi-stranded: 40 mM HEPES, 100 mM KCl, 500 mM NaCl, 5 uM strands (1.25 uM aptamer strand), 70 C melt, 12 h hold (50 C), imaged after 20 C.
For series [2], the target named is streptavidin (fluorescently labeled) (UniProt P22629). Described as above. To be noted: non-cognate, cross-binding only for TAT; Multi-stranded: 40 mM HEPES, 100 mM KCl, 500 mM NaCl, 5 uM strands (1.25 uM aptamer strand), 70 C melt, 12 h hold (50 C), imaged after 20 C; commercial protein; protein details: fluorescent label.

In the case of “GCGAGAGCGCUGCCCAAGCGCGUAGGGCAGCGCUCUCGCAAGCGAUGAACGUAGGGAAGCGCGUACCCUACGUUCAUCGCAAGCGUUCACACUGACCAAGCGCGUAGGUCAGUGUGAACGCAAGGUGCGCUGACAAAGCGCGCC [3sv2_BoxB (stem1)]”, the binding result in series [1] (co-transcriptional condensates, peptide present from start or added after) is “binds”. In the case of “GGUGCGCUGACAAAGCGCGCCGAGCUCAGAGUCUCUGGUCGCCAAGCUUAUCGGACACUG / GAGCUCAAGUAGGCACAUCAGCAAGGCGACCAGAGACUC / GAGCUCAUGCGUGGAGACAACGAAGCUGAUGUGCCUACU / GAGCUCACAGUGUCCGAUAAGCAACGUUGUCUCCACGCA [4m5 nanostar with P22 boxB]”, the binding result in series [2] is listed as “no binding”.

Turning to “GAUGCGGCCGCCGACCAGAAUCAUGCAAGUGCGUAAGAUAGUCGCGGGUCGGCGGCCGCAUCGCGCAUCCACGGCGUGUCGCAAGACGCCGACGCGUCG / GCGCAGUCGGGAUAUACCGGAAGCGACACGCCGUGGA / GCGCAAGUCCACAGUGGCGCAACCGGUAUAUCCCGAC / GCGCACGACGCGUCGGCGUCAAGCGCCACUGUGGACU [4m3 nanostar with streptavidin aptamer]”, in series [1] (non-cognate, cross-binding only for TAT), the binding result is “no binding”.
